The results in this text go back to PMC9444072.

Chains of the proteins cited; added tags and fusions are not shown.
UniProt Q12791: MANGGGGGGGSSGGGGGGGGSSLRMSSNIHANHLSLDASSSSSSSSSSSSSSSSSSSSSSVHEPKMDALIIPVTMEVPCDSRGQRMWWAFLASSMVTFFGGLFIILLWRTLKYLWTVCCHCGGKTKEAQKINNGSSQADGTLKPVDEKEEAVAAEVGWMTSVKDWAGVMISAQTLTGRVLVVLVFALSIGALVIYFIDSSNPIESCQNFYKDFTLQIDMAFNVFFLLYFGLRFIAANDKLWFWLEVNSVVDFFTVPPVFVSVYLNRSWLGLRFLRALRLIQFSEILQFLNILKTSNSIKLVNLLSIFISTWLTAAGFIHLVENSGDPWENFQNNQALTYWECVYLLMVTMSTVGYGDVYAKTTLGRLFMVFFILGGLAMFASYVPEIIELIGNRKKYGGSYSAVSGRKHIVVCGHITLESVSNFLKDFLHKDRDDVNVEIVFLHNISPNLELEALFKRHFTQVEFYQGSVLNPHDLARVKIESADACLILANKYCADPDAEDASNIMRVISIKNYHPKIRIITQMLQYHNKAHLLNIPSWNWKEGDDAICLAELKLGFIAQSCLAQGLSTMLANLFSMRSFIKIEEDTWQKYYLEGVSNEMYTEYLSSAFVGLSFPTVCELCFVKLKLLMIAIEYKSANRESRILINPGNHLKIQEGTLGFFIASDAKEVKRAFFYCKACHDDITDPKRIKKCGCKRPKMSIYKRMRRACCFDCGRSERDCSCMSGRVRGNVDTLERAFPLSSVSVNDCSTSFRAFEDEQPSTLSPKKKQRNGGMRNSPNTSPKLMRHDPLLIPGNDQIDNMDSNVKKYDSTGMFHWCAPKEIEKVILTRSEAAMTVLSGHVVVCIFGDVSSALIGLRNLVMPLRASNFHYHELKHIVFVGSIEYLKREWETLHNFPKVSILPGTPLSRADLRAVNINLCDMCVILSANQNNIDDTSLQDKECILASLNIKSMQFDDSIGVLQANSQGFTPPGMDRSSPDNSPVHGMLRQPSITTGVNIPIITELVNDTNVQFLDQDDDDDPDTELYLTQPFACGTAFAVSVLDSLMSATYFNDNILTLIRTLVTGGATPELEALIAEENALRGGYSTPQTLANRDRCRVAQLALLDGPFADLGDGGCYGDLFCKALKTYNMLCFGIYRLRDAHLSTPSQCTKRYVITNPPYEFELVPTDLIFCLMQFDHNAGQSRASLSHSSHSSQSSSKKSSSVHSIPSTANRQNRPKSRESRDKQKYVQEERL

No constants are given. Whether binding was seen depends on the method and setting. Some results given as binding are weak or reduced against the parent protein; the word gives no strength.

The target in this test is BK channel α subunit (hSloα1, human slow poke alpha subunit K+ channel) (human) (UniProt Q12791). Put plainly: native gel or EMSA; native SMA-PAGE (4-16% Tris/glycine gradient gel, 150 V, 1 h, room temperature) of Ni-NTA purified SMALPs from HEK293 membranes, followed by western blot with anti-hsloα, anti-hsloβ or anti-his antibodies; subunits co-expressed in cells and extracted together. Background: In EMSA bound probe runs differently from free probe, usually more slowly.

B1: BK channel β1 subunit (hSloβ1, human slow poke regulatory beta one subunit) (protein, UniProt Q16558 1-191)
chain: MVKKLVMAQKRGETRALCLGVTMVVCAVITYYILVTTVLPLYQKSVWTQESKCHLIETNIRDQEELKGKKVPQYPCLWVNVSAAGRWAVLYHTEDTRDQNQQCSYIPGSVDNYQTARADVEKVRAKFQEQQVFYCFSAPRGNETSVLFQRLYGPQALLFSLFWPTFLLTGGLLIIAMVKSNQYLSILAAQK
B1: the binding entry is given as “binds”.
